Reference: doi:10.1101/2021.08.25.457671
Substitutions are numbered along the chain they refer to. These are yes or no findings as the source states them, for the method shown. Binding seen in cells or lysates may run through a third protein. Some binding calls cover weakened binding; strength is not graded here. For part of these data: Sequences can lack the tags named with a protein. Each block holds one substance with its values, some of them ahead of it.

By UniProt entry, the sequences of proteins in these tests, tags left out. Where a name states a change or a piece, a line headed by the entry shows the natural chain unless it says otherwise.
UniProt P54198, whole entry: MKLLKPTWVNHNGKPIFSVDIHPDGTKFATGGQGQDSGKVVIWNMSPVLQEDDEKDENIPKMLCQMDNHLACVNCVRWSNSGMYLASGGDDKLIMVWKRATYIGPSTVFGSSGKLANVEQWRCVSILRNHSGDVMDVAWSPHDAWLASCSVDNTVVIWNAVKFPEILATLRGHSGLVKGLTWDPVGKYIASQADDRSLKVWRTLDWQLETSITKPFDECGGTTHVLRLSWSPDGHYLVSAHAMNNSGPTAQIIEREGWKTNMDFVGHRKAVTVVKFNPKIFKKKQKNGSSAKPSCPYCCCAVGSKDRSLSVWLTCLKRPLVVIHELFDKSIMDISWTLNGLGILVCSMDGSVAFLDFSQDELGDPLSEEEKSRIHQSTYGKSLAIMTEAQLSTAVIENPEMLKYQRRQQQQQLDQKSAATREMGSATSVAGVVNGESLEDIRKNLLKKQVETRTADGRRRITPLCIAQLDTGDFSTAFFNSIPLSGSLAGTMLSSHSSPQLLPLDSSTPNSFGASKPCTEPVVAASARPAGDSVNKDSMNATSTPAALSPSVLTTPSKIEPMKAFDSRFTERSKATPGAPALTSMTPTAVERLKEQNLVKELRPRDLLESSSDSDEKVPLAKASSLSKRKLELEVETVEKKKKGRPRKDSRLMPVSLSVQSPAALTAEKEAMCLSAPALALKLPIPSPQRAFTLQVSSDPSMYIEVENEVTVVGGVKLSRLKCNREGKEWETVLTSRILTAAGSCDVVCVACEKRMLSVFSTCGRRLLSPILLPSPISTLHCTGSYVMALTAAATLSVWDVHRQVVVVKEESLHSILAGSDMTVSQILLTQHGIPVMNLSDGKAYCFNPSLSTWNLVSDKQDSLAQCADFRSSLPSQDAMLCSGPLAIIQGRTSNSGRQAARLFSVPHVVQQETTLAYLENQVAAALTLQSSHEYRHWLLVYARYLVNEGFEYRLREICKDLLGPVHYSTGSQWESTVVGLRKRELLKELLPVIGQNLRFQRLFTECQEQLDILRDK
UniProt Q9H081, whole entry: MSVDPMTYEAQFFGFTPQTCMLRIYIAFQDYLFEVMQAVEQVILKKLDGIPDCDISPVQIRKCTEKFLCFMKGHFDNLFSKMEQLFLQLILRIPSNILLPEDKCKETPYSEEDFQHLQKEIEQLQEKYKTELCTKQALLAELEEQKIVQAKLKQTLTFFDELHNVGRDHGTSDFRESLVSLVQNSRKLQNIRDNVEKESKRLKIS
UniProt P11142, whole entry: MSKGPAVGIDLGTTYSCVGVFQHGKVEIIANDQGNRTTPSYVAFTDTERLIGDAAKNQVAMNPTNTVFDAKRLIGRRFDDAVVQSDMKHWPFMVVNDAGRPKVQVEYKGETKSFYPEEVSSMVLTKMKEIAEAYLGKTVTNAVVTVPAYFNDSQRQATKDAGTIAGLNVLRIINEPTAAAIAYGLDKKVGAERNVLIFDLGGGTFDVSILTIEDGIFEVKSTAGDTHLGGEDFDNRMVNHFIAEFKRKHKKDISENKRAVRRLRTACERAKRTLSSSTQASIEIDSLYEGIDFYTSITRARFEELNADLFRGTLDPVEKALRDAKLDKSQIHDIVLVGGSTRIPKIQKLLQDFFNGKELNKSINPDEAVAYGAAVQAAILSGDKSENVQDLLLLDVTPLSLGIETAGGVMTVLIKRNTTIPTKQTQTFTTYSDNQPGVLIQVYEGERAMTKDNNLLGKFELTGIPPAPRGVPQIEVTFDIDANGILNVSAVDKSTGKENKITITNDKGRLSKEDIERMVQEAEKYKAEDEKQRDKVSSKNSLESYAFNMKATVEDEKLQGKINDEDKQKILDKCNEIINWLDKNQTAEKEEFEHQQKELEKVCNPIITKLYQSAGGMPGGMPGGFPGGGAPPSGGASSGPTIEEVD
UniProt P25491, whole entry: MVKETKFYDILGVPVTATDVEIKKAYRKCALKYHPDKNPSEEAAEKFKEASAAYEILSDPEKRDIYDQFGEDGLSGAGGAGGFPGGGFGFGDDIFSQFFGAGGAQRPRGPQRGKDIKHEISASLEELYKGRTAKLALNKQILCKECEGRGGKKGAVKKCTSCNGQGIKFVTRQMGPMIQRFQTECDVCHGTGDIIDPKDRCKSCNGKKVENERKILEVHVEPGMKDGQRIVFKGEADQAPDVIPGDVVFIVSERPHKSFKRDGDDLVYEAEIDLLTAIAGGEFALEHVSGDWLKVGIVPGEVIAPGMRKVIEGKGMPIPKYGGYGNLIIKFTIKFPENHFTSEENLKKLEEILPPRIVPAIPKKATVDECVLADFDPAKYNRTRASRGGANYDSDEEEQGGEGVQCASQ
UniProt Q92598, whole entry: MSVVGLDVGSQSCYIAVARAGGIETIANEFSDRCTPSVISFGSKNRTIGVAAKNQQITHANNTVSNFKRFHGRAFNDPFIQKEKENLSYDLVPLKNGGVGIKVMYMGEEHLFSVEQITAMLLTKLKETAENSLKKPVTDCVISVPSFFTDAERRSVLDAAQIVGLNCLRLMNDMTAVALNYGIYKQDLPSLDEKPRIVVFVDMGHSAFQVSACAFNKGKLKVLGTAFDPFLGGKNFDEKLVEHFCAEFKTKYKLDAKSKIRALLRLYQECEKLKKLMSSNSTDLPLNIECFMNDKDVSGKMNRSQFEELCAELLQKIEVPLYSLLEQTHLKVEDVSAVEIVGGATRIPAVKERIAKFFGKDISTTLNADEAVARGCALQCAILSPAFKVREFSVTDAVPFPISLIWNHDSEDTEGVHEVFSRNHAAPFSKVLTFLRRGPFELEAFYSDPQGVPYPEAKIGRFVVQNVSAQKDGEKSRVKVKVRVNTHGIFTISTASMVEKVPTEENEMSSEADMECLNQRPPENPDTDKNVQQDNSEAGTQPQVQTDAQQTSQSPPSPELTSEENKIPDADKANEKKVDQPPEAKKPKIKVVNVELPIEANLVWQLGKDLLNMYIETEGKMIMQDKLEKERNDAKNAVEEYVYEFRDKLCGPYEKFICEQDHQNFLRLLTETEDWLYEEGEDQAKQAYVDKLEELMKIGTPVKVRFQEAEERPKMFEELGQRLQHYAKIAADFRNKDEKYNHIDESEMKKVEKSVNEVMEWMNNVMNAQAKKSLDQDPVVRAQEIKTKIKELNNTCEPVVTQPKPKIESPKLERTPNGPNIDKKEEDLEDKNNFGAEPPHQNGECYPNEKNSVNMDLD

Tests used:
HA-HIRA (human) = HA-HIRA (human) (UniProt P54198); assay: co-IP
Mis12 = Mis12 (UniProt Q9H081); assay: co-IP
mammalian Lonp-1 = target: T1, mammalian Lonp-1 (UniProt P36776); assay: co-IP
T1 sequence: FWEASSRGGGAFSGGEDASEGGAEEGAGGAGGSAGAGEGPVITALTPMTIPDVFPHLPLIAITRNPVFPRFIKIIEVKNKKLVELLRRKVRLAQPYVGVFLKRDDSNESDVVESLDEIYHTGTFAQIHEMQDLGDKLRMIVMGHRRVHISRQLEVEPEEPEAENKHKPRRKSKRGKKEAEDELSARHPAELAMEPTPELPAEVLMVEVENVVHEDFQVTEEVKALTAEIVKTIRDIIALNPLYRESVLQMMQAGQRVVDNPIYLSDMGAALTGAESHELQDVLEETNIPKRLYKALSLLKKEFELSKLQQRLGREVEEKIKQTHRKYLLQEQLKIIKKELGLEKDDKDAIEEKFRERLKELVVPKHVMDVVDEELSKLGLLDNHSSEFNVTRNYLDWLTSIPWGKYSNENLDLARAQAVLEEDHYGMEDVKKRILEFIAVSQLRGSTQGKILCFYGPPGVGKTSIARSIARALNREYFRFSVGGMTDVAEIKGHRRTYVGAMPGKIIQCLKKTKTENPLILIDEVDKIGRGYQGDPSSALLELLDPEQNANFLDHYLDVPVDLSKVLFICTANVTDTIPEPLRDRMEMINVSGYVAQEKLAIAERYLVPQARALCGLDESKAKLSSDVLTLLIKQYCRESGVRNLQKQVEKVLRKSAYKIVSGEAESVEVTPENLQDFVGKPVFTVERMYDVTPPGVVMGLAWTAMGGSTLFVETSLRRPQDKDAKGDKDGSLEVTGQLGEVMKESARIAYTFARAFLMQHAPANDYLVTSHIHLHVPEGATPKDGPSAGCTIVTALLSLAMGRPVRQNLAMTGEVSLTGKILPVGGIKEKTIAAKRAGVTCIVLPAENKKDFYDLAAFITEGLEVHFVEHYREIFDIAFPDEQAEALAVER

[1] = target: HIS-tagged Ssa1 (budding yeast) (UniProt P10591); assay: cross-linking
[2] = target: FLAG-Ssa1 V435F (substrate-binding deficient mutant) (budding yeast) (UniProt P10591); assay: co-IP
[3] = target: Ssa1, FLAG-tagged and HA-tagged constructs expressed together in yeast (budding yeast) (UniProt P10591); assay: co-IP
[4] = target: T2, Ste11 (immunoprecipitated from yeast) (budding yeast) (UniProt P23561); assay: co-IP
T2 sequence: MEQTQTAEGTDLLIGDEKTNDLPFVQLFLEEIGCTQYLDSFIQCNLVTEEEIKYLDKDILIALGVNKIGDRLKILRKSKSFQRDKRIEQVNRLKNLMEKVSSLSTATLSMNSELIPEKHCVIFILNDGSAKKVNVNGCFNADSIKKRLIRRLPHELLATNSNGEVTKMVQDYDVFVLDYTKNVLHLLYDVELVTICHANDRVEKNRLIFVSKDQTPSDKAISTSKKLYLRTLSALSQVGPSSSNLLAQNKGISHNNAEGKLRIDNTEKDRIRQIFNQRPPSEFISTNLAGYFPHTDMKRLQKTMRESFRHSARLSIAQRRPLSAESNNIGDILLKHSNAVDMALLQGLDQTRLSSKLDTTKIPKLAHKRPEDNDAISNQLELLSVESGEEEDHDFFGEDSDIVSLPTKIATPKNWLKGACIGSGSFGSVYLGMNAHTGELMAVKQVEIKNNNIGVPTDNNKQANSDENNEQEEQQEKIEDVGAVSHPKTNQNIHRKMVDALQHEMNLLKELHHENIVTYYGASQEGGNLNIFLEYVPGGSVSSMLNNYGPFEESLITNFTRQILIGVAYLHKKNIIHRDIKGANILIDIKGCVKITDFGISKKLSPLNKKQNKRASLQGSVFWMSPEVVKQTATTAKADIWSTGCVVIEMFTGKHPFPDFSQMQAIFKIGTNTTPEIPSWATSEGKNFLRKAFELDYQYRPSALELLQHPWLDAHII

[5] = target: T3, HA-tagged Sse1 (budding yeast) (UniProt P32589); assay: co-IP
T3 sequence: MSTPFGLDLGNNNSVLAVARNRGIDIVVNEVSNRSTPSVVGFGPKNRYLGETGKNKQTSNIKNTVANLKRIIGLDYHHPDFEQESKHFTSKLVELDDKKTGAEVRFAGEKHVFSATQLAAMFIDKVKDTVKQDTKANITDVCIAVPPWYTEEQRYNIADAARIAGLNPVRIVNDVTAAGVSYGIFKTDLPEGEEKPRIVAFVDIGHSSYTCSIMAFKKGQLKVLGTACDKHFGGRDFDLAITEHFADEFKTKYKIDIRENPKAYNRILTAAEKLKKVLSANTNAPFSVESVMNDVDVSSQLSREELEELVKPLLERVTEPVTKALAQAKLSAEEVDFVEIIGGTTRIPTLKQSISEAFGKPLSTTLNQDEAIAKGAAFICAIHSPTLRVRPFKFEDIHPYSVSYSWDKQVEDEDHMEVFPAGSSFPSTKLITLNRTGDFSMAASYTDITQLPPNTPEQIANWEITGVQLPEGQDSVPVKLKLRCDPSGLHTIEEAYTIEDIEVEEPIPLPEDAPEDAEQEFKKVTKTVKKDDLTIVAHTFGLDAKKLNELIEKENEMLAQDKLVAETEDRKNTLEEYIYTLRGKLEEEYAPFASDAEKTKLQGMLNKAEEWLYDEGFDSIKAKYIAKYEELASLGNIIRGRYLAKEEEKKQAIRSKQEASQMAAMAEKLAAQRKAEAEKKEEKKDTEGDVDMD

[6] = target: T4, Mtw1 (bait of the co-IP in yeast) (budding yeast) (UniProt P39731); assay: co-IP
T4 sequence: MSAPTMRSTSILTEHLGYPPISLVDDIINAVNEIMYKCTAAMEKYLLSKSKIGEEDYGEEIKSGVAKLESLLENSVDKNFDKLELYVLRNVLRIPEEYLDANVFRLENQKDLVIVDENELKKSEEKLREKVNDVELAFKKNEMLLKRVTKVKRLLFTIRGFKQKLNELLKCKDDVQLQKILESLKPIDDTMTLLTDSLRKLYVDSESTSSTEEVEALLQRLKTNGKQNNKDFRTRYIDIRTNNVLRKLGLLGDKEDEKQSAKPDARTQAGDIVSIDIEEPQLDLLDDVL

[7] = target: T5, HA-tagged Pcl7 (budding yeast) (UniProt P40186); assay: co-IP
T5 sequence: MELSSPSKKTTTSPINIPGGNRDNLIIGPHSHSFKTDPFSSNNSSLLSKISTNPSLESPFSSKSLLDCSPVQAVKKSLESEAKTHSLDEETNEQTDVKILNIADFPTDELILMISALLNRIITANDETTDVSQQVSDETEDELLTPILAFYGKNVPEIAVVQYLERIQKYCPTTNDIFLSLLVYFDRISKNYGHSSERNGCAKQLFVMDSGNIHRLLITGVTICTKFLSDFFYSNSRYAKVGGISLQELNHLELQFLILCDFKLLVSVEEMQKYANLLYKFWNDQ

[8] = target: HA-tagged Cct8 (budding yeast) (UniProt P47079); assay: co-IP
[9] = target: T6, Ste11 R305A (non-methylatable mutant) (budding yeast) (UniProt P23561); assay: co-IP
T6 sequence: T2 sequence with R305A

Hir2 (budding yeast) = Hir2 (budding yeast) (UniProt P32480); assay: co-IP
[10] = target: T7, HA-tagged Ura8 (budding yeast) (UniProt P38627); assay: co-IP
T7 sequence: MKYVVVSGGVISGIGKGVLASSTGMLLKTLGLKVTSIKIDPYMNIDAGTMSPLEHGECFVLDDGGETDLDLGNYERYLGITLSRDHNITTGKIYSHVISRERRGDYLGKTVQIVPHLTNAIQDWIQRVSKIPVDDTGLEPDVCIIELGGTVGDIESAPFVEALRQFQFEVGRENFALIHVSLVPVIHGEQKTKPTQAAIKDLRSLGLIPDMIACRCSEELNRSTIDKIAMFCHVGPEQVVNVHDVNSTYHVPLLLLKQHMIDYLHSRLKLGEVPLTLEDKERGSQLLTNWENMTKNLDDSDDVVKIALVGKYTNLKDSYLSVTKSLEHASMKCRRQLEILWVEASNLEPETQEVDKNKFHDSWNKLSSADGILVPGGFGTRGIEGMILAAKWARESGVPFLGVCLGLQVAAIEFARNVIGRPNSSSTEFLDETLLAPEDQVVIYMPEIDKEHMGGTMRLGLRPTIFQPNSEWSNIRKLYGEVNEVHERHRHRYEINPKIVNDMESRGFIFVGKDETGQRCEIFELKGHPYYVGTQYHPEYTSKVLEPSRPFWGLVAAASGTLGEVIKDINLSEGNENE

Substance: Hsc70 (from UniProt P11142 1-646)
binding (HA-HIRA (human)): binds | binding (Mis12): binds | binding (mammalian Lonp-1): binds

Substance: Ssa1, FLAG-tagged and HA-tagged constructs expressed together in yeast (from UniProt P10591 1-642)
binding [2]: binds

Substance: Ydj1 (from UniProt P25491 1-409)
binding [3]: binds | binding [4]: binds | binding [5]: binds | binding [6]: binds | binding [7]: binds | binding [8]: binds | binding [9]: binds | binding (Hir2 (budding yeast)): binds | binding [2]: binds | binding [10]: binds

Substance: Hir2 (from UniProt P32480 1-875)
binding [1]: binds

Substance: Hsp82 (from UniProt P02829 1-709)
binding [5]: binds | binding [6]: binds | binding [7]: binds | binding [8]: binds | binding (Hir2 (budding yeast)): binds | binding [10]: binds

More lines, now with the values ahead:

binding [1]: binds
Substance: Cct8 found by mass spectrometry with HIS-Ssa1 (from UniProt P47079 1-568)

binding (HA-HIRA (human)): binds | binding (Mis12): binds | binding (mammalian Lonp-1): binds
Substance: DNAJA1 (from UniProt P31689 1-397)

binding (HA-HIRA (human)): binds | binding (Mis12): binds
Substance: Hsp110 (from UniProt Q92598 1-858)
